# Screening data, single-dose tests

By UniProt entry, the sequences of proteins in these tests, tags left out. Residues count along the entry.
UniProt A4I591, 1-473: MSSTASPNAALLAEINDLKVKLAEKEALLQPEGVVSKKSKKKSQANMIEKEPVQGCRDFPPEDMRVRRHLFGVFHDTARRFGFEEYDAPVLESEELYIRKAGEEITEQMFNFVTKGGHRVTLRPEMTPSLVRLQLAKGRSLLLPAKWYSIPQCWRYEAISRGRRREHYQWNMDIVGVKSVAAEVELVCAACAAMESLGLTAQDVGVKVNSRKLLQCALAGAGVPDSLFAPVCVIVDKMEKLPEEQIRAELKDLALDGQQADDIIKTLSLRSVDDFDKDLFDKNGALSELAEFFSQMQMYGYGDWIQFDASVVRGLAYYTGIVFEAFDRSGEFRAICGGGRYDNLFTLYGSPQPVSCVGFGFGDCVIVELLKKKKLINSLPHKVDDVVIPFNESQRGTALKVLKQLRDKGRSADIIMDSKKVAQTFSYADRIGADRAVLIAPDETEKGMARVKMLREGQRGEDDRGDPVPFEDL
UniProt Q4DA54, 1-478: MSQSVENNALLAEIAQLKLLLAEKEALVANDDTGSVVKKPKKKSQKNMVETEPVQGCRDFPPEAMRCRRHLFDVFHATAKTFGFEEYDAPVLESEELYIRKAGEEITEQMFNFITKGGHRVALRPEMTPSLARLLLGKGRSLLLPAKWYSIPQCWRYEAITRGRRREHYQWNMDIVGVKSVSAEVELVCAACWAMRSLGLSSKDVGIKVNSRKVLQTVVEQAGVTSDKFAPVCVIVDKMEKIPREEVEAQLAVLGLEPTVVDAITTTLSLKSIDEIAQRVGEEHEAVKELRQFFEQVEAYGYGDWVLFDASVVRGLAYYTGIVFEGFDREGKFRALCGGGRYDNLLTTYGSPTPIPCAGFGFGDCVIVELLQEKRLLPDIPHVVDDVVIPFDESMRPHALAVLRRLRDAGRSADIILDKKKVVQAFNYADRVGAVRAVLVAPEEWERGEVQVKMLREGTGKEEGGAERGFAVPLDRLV
UniProt P9WPC5, whole entry: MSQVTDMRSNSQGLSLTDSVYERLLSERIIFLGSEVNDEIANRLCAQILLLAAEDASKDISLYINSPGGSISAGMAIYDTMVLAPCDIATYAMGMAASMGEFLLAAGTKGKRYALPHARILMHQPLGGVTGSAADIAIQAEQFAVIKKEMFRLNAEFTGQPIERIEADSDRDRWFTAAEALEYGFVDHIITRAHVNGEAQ
UniProt P9WPC3, whole entry partner: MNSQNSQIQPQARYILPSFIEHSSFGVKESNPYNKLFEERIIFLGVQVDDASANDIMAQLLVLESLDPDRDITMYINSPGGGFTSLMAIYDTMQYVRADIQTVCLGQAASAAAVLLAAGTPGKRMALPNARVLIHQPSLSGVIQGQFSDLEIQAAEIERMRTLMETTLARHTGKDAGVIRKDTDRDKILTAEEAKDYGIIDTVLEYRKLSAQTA

From ChEMBL document CHEMBL3988442, “University of Dundee, Small-Polar-MMV Screening Library” (2021).

LiHisRS: 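Enzyme assay of histidyl-tRNA synthetase; the read-out is not stated. Target: Histidine-tRNA ligase, Leishmania infantum (UniProt A4I591). Concentration: 30 µM. The record gives no direction; compounds that gave an IC50 in retests scored well above the rest, so higher reads as stronger inhibition. The assay is labelled LdHisRS but filed under L. infantum. About 69,000 compounds were tested under these conditions; 0.6% (about 410) showed 50% or more at least once.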
TcHisRS: 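Enzyme assay of histidyl-tRNA synthetase; the read-out is not stated. Target: Histidine-tRNA ligase, Trypanosoma cruzi CL Brener (UniProt Q4DA54). Concentration: 30 µM. Direction is inferred from retests: higher values go with stronger inhibition. Size under these conditions: about 69,000 compounds, about 31 of them at 50% or above in at least one test.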
ClpP1P2: 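ClpP1P2, Mycobacterium tuberculosis (UniProt P9WPC5 and UniProt P9WPC3). Protease assay of ClpP1P2, read by the AMC dye that it sets free. Compounds at 50 µM. Direction is inferred from only a few compounds that gave an IC50; most scored high, so higher reads as stronger inhibition. Most other retested compounds had strongly negative values. Size under these conditions: about 69,000 compounds, about 10 of them at 50% or above in at least one test.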

The filed quantity is “Percent Effect” (%).
How 0% and 100% were set is not recorded. Most values in the screen are low, and negative values occur.
Compounds were drawn at random from those tested, without regard to their results.

{"smiles": "CCCc1nc(C)c(C(=O)NCCNc2ncccc2C#N)s1", "LiHisRS": 9.649, "TcHisRS": 3.779, "ClpP1P2": -30.52}
{"smiles": "CN1CCN(S(=O)(=O)c2cccc(F)c2)c2cnccc21", "LiHisRS": 21.51, "TcHisRS": 9.845, "ClpP1P2": 6.831}
{"smiles": "CN(C)C[C@H]1OC[C@@H]2CCN(C(=O)Cc3cccs3)C[C@@H]21", "LiHisRS": 7.895, "TcHisRS": 1.149, "ClpP1P2": 1.822}
{"smiles": "CN(C)c1ncc(-c2cc(C(=O)NC(C)(C)CO)n(CC3CC3)c2)cn1", "LiHisRS": 4.11, "TcHisRS": 0, "ClpP1P2": -57.62}
{"smiles": "CCC(=O)N1CCN(C(=O)Nc2cccc(C#N)c2)[C@H]2CS(=O)(=O)C[C@H]21", "LiHisRS": -7.692, "TcHisRS": 4.598, "ClpP1P2": 0.8786}
{"smiles": "Cc1c(CNCCCOc2cccnc2)c2ccccc2n1CC(N)=O", "LiHisRS": 5.263, "TcHisRS": 1.093, "ClpP1P2": -9.842}
{"smiles": "CN(C)C(=O)N[C@@H]1CN(Cc2ccc3c(c2)OCO3)[C@@H]2CCCO[C@@H]21", "LiHisRS": 20.75, "TcHisRS": 7.027, "ClpP1P2": 12.91}
{"smiles": "CN1C[C@@H](N)C[C@H]1C(=O)N1CCC(CCCc2ccccc2)CC1", "LiHisRS": 30.61, "TcHisRS": 24, "ClpP1P2": -11.34}
{"smiles": "Cc1nnc(CN(C)Cc2nc3c(s2)CCCC3)o1", "LiHisRS": 5.882, "TcHisRS": 10.05, "ClpP1P2": 1.457}
{"smiles": "CC(C)CCN(C(=O)CCn1cc(S(N)(=O)=O)cn1)C1CC1", "LiHisRS": 6.25, "TcHisRS": 4.972, "ClpP1P2": -7.544}
{"smiles": "COC(=O)c1sc2cccc(F)c2c1CNC(=O)C1CC1", "LiHisRS": 4.505, "TcHisRS": 6.667, "ClpP1P2": -2.706}
{"smiles": "CNC(=O)C(NC(=O)c1ccn(C)c(=O)c1)c1ccccc1", "stereo": "stereo not shown", "LiHisRS": 13.27, "TcHisRS": 0.4425, "ClpP1P2": -4.33}
{"smiles": "COC(=O)c1cccc(CN(C)Cc2ncnn2C)c1C#N", "LiHisRS": 5.882, "TcHisRS": -0.5291, "ClpP1P2": -3.782}
{"smiles": "Cc1[nH]ccc1C(=O)N1CCC(c2nnc(Cn3cccn3)n2C)CC1", "LiHisRS": 15.24, "TcHisRS": 2.479, "ClpP1P2": -9.877}
{"smiles": "COC(=O)CCNC(=O)c1c[nH]cc1-c1ccccc1OC", "LiHisRS": 30.3, "TcHisRS": -3.261, "ClpP1P2": 0.6346}
{"smiles": "COCCN(C)C(C)c1cccc(S(N)(=O)=O)c1", "stereo": "stereo not shown", "LiHisRS": 15.38, "TcHisRS": 0.8547, "ClpP1P2": -11.35}
{"smiles": "CC(Cn1cncn1)Nc1ccc(-c2nccn2C)nn1", "stereo": "stereo not shown", "LiHisRS": 18.33, "TcHisRS": 9.091, "ClpP1P2": 1.745}
{"smiles": "CCC1CCc2c(c3ccccc3[nH]c2=O)O1", "stereo": "stereo not shown", "LiHisRS": -716.1, "TcHisRS": 2.062, "ClpP1P2": 19.19}
{"smiles": "CS(=O)(=O)NC[C@H]1Cn2c(-c3ccc4c(c3)OCCO4)cnc2CO1", "LiHisRS": 4.054, "TcHisRS": 5.435, "ClpP1P2": -2.181}
{"smiles": "COc1cccc(OC)c1C(=O)N1C[C@@H](CN(C)C)[C@@H](CO)C1", "LiHisRS": 17.74, "TcHisRS": 7.143, "ClpP1P2": -7.497}
{"smiles": "COCCN1CCCC2(CCN(c3ncnc(C)c3C)C2)C1=O", "stereo": "stereo not shown", "LiHisRS": 10, "TcHisRS": 9.639, "ClpP1P2": 1.524}
{"smiles": "CC[C@H]1CN2CC[C@H]1C[C@@H]2CNC(=O)Nc1cccc(C#N)c1", "LiHisRS": 19.44, "TcHisRS": 9.901, "ClpP1P2": -9.759}
{"smiles": "CN(C(=O)COC1CCCCC1)C1CCN(CC2CCOC2)CC1", "stereo": "stereo not shown", "LiHisRS": 14.71, "TcHisRS": 4.762, "ClpP1P2": 3.248}
{"smiles": "COc1ccc(CN2CCO[C@H]3CN(C4CCCC4)CC[C@H]3C2=O)cc1", "LiHisRS": 1.01, "TcHisRS": 8.387, "ClpP1P2": -2.214}
{"smiles": "Fc1ccc(CN2CCC(c3n[nH]c4ncccc34)CC2)cc1F", "LiHisRS": -5.714, "TcHisRS": 0, "ClpP1P2": -3.804}
{"smiles": "c1ccc(CN2CCC3(CC2)CC(Nc2nccs2)CO3)nc1", "stereo": "stereo not shown", "LiHisRS": 6, "TcHisRS": 2.941, "ClpP1P2": -5.43}
{"smiles": "Cc1ccc(C(CNCc2cccnc2)N2CCOCC2)s1", "stereo": "stereo not shown", "LiHisRS": 8.036, "TcHisRS": -1.724, "ClpP1P2": -2.205}
{"smiles": "CC1CN(CC(=O)NCCc2ccccc2)CCN1c1nccs1", "stereo": "stereo not shown", "LiHisRS": 8.333, "TcHisRS": 1.739, "ClpP1P2": -14}
{"smiles": "c1nc2c(c(C3CC3)n1)CCN(CC1CCOC1)CC2", "stereo": "stereo not shown", "LiHisRS": 12.03, "TcHisRS": 2.762, "ClpP1P2": 2.71}
{"smiles": "O=C(O)c1ccnc(SCC(F)(F)F)c1", "LiHisRS": 18.37, "TcHisRS": 10, "ClpP1P2": 0.4586}
{"smiles": "Cc1cccc(CN2C[C@@H]3COC[C@]3(COc3ccc(C#N)cn3)C2)n1", "LiHisRS": 5.714, "TcHisRS": -0.8264, "ClpP1P2": -1.776}
{"smiles": "CC(C)n1cnnc1CN(C)C(=O)c1ccccc1-n1cncn1", "LiHisRS": 7.965, "TcHisRS": 2.4, "ClpP1P2": -12.34}
{"smiles": "Cc1nc(C)n(C2CCCN(C(=O)c3cc4ccccc4n3C)C2)n1", "stereo": "stereo not shown", "LiHisRS": 0, "TcHisRS": 1.887, "ClpP1P2": 5.471}
{"smiles": "Oc1ccc(-c2c(-c3ccccc3)ncn2C[C@H]2CCCN2)cc1", "LiHisRS": 25.81, "TcHisRS": 7.407, "ClpP1P2": -6.048}
{"smiles": "COc1ccc(-c2nnc(CNCCn3cccn3)o2)cc1", "LiHisRS": 5.085, "TcHisRS": 2.857, "ClpP1P2": -8.737}
{"smiles": "Clc1ccc2cccnc2c1CN1CCCC1Cn1cncn1", "stereo": "stereo not shown", "LiHisRS": 18.46, "TcHisRS": 10.34, "ClpP1P2": -5.076}
{"smiles": "COC(=O)N1CCc2ccccc2C1C(=O)NCc1ccccn1", "stereo": "stereo not shown", "LiHisRS": 6.957, "TcHisRS": 5.155, "ClpP1P2": -6.478}
{"smiles": "CCN1CCO[C@@H]2CN(C(=O)NCc3ccccc3)CC[C@@H]2C1", "LiHisRS": 4.545, "TcHisRS": 1.058, "ClpP1P2": -0.3293}

For reference, 3 entries once more:

SMILES	LiHisRS	TcHisRS	ClpP1P2
CN(C)C[C@H]1OC[C@@H]2CCN(C(=O)Cc3cccs3)C[C@@H]21	7.895	1.149	1.822
CN(C)C(=O)N[C@@H]1CN(Cc2ccc3c(c2)OCO3)[C@@H]2CCCO[C@@H]21	20.75	7.027	12.91
Fc1ccc(CN2CCC(c3n[nH]c4ncccc34)CC2)cc1F	-5.714	0	-3.804